Experimental data reported in patent US9322034B2, “Compositions and methods for detecting and modulating cell death by a translation regulated gene expression system” (Wayne State University, priority 2007, dated 2016).
Some of these results come from one statement about several compounds together. Where a SMILES comes first, the peptide text is derived from it. The star is where a group is joined. Cbz = O=C(OCc1ccccc1)*

Tested on: HEK293 cell pools expressing the fLUC-TRplp-EYFP, fLUC-TRdm-EYFP, pcuLf-TRplp-EYFP or pcuLf-TRdm-EYFP expression cassettes
Assay: Cytotoxicity assay by Western blot, bicistronic TR cassettes
Format: cell-based, human
Settings: bicistronic cell pools treated with calcium ionophore A23187 and MG132 as

Row | SMILES | EYFP protein levels, % of untreated cellular levels
1 | CC(C)C[C@@H](C=O)NC(=O)[C@H](CC(C)C)NC(=O)[C@H](CC(C)C)NC(=O)OCc1ccccc1 [MG132] (Cbz-Leu-Leu-Leu-aldehyde) | 130-750%
2 | CNc1ccc2oc(C[C@H]3O[C@@]4(CC[C@H]3C)O[C@H]([C@H](C)C(=O)c3ccc[nH]3)[C@H](C)C[C@H]4C)nc2c1C(=O)O [calcium ionophore A23187] | 130-750%
